Experimental data as given in publication doi:10.1101/2020.04.30.070086 (bioRxiv, 2020).
No constants are given. Whether binding was seen depends on the method and setting. A result given as binding can be weak or reduced; the word gives no strength. For some assays here: Where a sequence is shown, tags or fusion partners need not be part of it. Values belong to the molecule of their own block, whether it stands above or below them.

Key:
[1] = molecular target: T1, GST-Ndel1, full length (FL) (UniProt Q9ERR1); test: pull-down
T1 sequence: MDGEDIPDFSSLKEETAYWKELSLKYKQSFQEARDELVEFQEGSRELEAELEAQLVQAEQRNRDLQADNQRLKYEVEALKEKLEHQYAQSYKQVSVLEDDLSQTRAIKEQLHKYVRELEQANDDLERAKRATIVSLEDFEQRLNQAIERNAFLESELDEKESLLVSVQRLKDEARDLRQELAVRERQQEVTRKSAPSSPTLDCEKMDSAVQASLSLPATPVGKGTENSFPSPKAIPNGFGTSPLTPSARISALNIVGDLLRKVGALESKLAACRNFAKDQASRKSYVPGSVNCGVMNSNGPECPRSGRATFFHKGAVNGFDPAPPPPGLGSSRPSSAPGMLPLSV

[2] = molecular target: GST-Ndel1 alpha-helical region (AH); test: pull-down

binding [1]: binds
Molecule: IF consensus motif of keratin 10 (domain or fragment)

binding [2]: binds
B1: keratin 10 (K10), full length (natural protein, UniProt P02535-2 1-561, looked up)
chain: MSVLYSSSSKQFSSSRSGGGGGGGSVRVSSTRGSLGGGYSSGGFSGGSFSRGSSGGGCFGGSSGGYGGFGGGGSFGGGYGGSSFGGGYGGSSFGGGSFGGGGSFGGGSFGGGSYGGGFGGGGFGGDGGSLLSGNEKVTMQNLNDRLASYMDKVRALEESNYELEGKIKEWYEKHGNSSQREPRDYSKYYKTIEDLKGQILTLTTDNANVLLQIDNARLAADDFRLKYENEVTLRQSVEADINGLRRVLDELTLSKSDLEMQIESLNEELAYLKKNHEEEMRDLQNVSTGDVNVEMNAAPGVDLTQLLNNMRNQYEQLAEKNRKDAEEWFNQKSKELTTEIDSNIEQMSSHKSEITELRRTVQGLEIELQSQLALKQSLEASLAETEGRYCVQLSQIQSQISALEEQLQQIRAETECQNAEYQQLLDIKTRLENEIQTYRSLLEGEGSSSGGGGGRRGGSGGGSYGGSSGGGSYGGSSGGGGSYGGSSGGGGSYGGGSSGGGSHGGSSGGGYGGGSSSGGAGGHGGSSGGGYGGGSSSGGQGGSGGFKSSGGGDQSSKGPRY
